For at least one entry, the source does not settle the construct or the ends of the probe. A weaker result is weaker than the reference pair of the same experiment. Tags and fusion partners may be left off the protein sequences shown.
Target: T1, Reb1p (His6-Reb1p) (Saccharomyces cerevisiae RS453) (UniProt P21538)
T1 sequence (looked up, limits assumed): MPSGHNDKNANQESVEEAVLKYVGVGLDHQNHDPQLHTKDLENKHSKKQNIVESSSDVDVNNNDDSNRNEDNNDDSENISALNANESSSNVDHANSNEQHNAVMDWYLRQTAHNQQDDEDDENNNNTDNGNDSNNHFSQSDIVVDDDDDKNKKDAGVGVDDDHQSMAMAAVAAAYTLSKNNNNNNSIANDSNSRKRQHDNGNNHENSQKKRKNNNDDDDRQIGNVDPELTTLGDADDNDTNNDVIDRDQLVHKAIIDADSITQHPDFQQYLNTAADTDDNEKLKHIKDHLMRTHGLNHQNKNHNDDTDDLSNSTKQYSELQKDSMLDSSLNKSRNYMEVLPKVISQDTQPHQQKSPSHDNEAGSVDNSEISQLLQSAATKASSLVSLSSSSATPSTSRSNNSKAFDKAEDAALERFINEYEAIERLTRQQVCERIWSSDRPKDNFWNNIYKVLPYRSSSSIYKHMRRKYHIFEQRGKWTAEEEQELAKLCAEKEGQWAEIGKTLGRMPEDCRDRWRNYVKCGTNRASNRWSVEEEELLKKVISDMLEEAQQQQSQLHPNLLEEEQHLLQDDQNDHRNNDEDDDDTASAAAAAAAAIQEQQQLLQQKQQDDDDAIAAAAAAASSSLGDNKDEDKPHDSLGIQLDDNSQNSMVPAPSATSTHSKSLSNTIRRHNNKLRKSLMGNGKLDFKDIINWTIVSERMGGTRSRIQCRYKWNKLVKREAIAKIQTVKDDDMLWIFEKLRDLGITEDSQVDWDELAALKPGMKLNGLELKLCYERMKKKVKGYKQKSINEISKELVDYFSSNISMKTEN
Assay: EMSA
Details: 10 mM Mg2+, 0.2-1.0 ug Reb1p, 4 pmol probe, shift greatly attenuated; 10 mM Tris-HCl pH 8.0, 10 mM MgCl2, 50 mM KCl, 1 mM DTT, 0.025 mg/ml poly(dI-dC), 0.2 mg/ml BSA, 0.04% IGEPAL CA-630, 10% glycerol; 15 min, room temperature; recombinant protein; protein details: N-terminal His6 (pET-15b); label: 32P (alpha-32P dTTP, Klenow)

Sequence: AGGGTCCATAGCGGTGAACAAATTATTGG (double strand) [DGK1 promoter Reb1p site mutant (GT to TG)]
- binding result: binds more weakly

Reference: publication PMC3790011, “Transcription Factor Reb1p Regulates DGK1-encoded Diacylglycerol Kinase and Lipid Metabolism in Saccharomyces cerevisiae*”
